From article PMC11157491, “Novel Alaninamide Derivatives with Drug-like Potential for Development as Antiseizure and Antinociceptive Therapies—In Vitro and In Vivo Characterization” (ACS Chemical Neuroscience, 2024)
Read-outs that look alike come from different tables or passages of the source.

Tests used:
mice [1] = experiment: Maximal electroshock (MES) seizure test; type: in vivo; details: TD50 chimney test / ED50 MES
Excerpt: (§1) Identification and profiling of new ASM candidate compounds are still largely based on predictive animal models of seizures/epilepsy, while a range of in silico and in vitro approaches (i.e., molecular modeling or high throughput screening, etc.) are increasingly used in the early stages of ASM discovery.[31] The Epilepsy Therapy Screening Program (ETSP) of the National Institute of Neurological Disorders and Stroke (NIH, Bethesda, MD) has enabled the discovery of several approved ASMs by focusing on the in vivo testing of compounds synthesized by both academic laboratories and industry.[32] The ETSP provides a broad panel of seizure tests (ca. 30 rodent models), but a subset of them is used for the initial screening of new compounds with potential antiseizure activity. The routinely used seizure models include: (i) the MES test, which is an experimental model of tonic–clonic seizures, (ii) the 6 Hz model (32 mA) of focal seizures, and (iii) the scPTZ model of generalized absence or myoclonic seizures.[33],[34] Consequently, in the current studies, all final compounds 21–36 and 45–48 were initially studied in the MES and the 6 Hz (32 mA) seizure models after intraperitoneal (i.p.) administration at a screening dose of 100 mg/kg in mice at a time point of 0.5 h (the screening group consisted of four mice, and the results obtained are summarized in Table S1).
(§2) These parameters were then used to calculate the protective indexes (PIs, PI = TD50/ED50), which describe the therapeutics window of potential drug candidates. The ED50, TD50, and PI values for the tested compounds together with data of their chemical prototypes KA-11 and KJ-5 and reference ASMs are summarized in Table 2.
(§3) The adult male Albino Swiss mice weighed between 22 and 26 g were used in the in vivo studies. They were housed under standardized housing conditions in colony cages and had free access to food as well as tap water. The animals were left to adapt under laboratory conditions for 7 days. All procedures involving animals and their care were performed in accordance with the current European Community and Polish legislation on animal experimentation.
(§4) In the initial screening studies, four mice per group were randomly assigned to each experimental group (each mouse was used only once). To evaluate the ED50 or TD50 values, four groups consisting of eight animals were injected with various doses of tested compounds. The protective indexes (PIs) for the compounds investigated and reference ASMs were calculated by dividing the TD50 value, as determined in the chimney test, by the respective ED50 value, as determined in the MES, scPTZ, or 6 Hz (32 or 44 mA) tests (PI = TD50/ED50). The PIs are a measure of the potential therapeutic window of the tested agent.
(§5) All substances were suspended in Tween 80 (1% aqueous solution) and administered i.p. as a single injection at a dose of 10 mL/kg. On each day of experimentation, fresh solutions were prepared. The detailed in vivo procedures are described elsewhere: the maximal electroshock seizure test (MES),[60] the subcutaneous pentylenetetrazole seizure test (scPTZ),[61] the 6 Hz psychomotor seizure model (32 and 44 mA),[62] and the chimney test.[63] The reference ASMs were purchased from commercial suppliers: VPA (Sigma-Aldrich, St. Louis, MO), LCS, and LEV (UCB Pharma, Braine l’Alleud, Belgium).

mice [2] = experiment: 6 Hz (32 mA) psychomotor seizure model; type: in vivo; details: TD50 chimney test / ED50 6 Hz (32 mA)
Excerpt: as §1, §2, §3, §4, §5

mice [3] = experiment: 6 Hz (44 mA) model of pharmacoresistant seizures; type: in vivo; details: for PI (TD50/ED50) 6 Hz (44 mA): TD50 chimney test / ED50 6 Hz (44 mA)
Method: Based on the promising pharmacological data for 26 and 28, and especially potent protection in the 6 Hz (32 mA) seizure model, both compounds were tested subsequently in the 6 Hz seizure model, applying a higher current intensity of 44 mA (Table 3). Importantly, this test is recognized as one of the key animal models of pharmacoresistant seizures, utilized in the early stage of new ASMs’ development.
as §4, §5

mice [4] = details: cited from earlier work
mice [5] = details: cited from earlier work; remark: listed apart in the source
mice [6] = details: cited from earlier work; remark: listed apart in the source

CC(=O)NC(C)C(=O)N1CCN(c2cccc(Cl)c2)CC1 (stereo not drawn) [Compound 22, N-(1-(4-(3-Chlorophenyl)piperazin-1-yl)-1-oxopropan-2-yl)acetamide]
PI (TD50/ED50) MES (mice [1]): 1.7 | PI (TD50/ED50) 6 Hz (32 mA) (mice [2]): 2.8

CC(=O)NC(C)C(=O)N1CCN(c2ccc(Cl)c(Cl)c2)CC1 (stereo not drawn) [Compound 24, N-(1-(4-(3,4-Dichlorophenyl)piperazin-1-yl)-1-oxopropan-2-yl)acetamide]
PI (TD50/ED50) 6 Hz (32 mA) (mice [2]): 3.4 (6 Hz)

CC(=O)NC(C)C(=O)N1CCN(c2cc(Cl)cc(Cl)c2)CC1 (stereo not drawn) [Compound 25, N-(1-(4-(3,5-Dichlorophenyl)piperazin-1-yl)-1-oxopropan-2-yl)acetamide]
PI (TD50/ED50) MES (mice [1]): 3.8 | PI (TD50/ED50) 6 Hz (32 mA) (mice [2]): 3.6

CC(=O)NC(C)C(=O)N1CCN(c2cccc(C(F)(F)F)c2)CC1 (stereo not drawn) [Compound 26, N-(1-oxo-1-(4-(3-(Trifluoromethyl)phenyl)piperazin-1-yl)propan-2-yl)acetamide]
PI (TD50/ED50) MES (mice [1]): 2.7 | PI (TD50/ED50) 6 Hz (44 mA) (mice [3]): 5.8 | effectiveness relative to KJ-5 in the 6 Hz (44 mA) test (mice [3]; more effective than KJ-5): > 2 fold | PI (TD50/ED50) 6 Hz (32 mA) (mice [2]): 11.0

CC(=O)NC(C)C(=O)N1CCN(c2cccc(OC(F)(F)F)c2)CC1 (stereo not drawn) [Compound 28, N-(1-oxo-1-(4-(3-(Trifluoromethoxy)phenyl)piperazin-1-yl)propan-2-yl)acetamide]
PI (TD50/ED50) MES (mice [1]): 2.8 | PI (TD50/ED50) 6 Hz (44 mA) (mice [3]): 3.4 | PI (TD50/ED50) 6 Hz (32 mA) (mice [2]): 8.2

CC(=O)NC(C)C(=O)N1CCN(c2cccc(Oc3ccccc3)c2)CC1 (stereo not drawn) [Compound 29, N-(1-oxo-1-(4-(3-Phenoxyphenyl)piperazin-1-yl)propan-2-yl)acetamide]
PI (TD50/ED50) MES (mice [1]): 2.7 | PI (TD50/ED50) 6 Hz (32 mA) (mice [2]): 2.6

CC(=O)NC(C)C(=O)N1CCN(c2cccc(SC(F)(F)F)c2)CC1 (stereo not drawn) [Compound 30, N-(1-oxo-1-(4-(3-((Trifluoromethyl)thio)phenyl)piperazin-1-yl)propan-2-yl)acetamide]
PI (TD50/ED50) MES (mice [1]): 3.0 | PI (TD50/ED50) 6 Hz (32 mA) (mice [2]): 3.4

CC(C(=O)N1CCN(c2cccc(C(F)(F)F)c2)CC1)N1C(=O)CCC1=O (stereo not drawn) [KA-11]
PI (TD50/ED50) 6 Hz (32 mA) (mice [4]; TD50 chimney test): > 71.4 | PI (TD50/ED50) MES (mice [5]; TD50 chimney test): > 17.0

CC(=O)NC(C(=O)N1CCN(c2cccc(C(F)(F)F)c2)CC1)c1ccccc1 (stereo not drawn) [KJ-5]
PI (TD50/ED50) 6 Hz (32 mA) (mice [4]; TD50 chimney test): 6.0 | PI (TD50/ED50) MES (mice [5]; TD50 chimney test): 2.0 | PI (TD50/ED50) 6 Hz (44 mA) (mice [6]; TD50 chimney test): 2.6

COC[C@@H](NC(C)=O)C(=O)NCc1ccccc1 [LCS, lacosamide]
PI (TD50/ED50) 6 Hz (32 mA) (mice [4]; TD50 rotarod test): 8.8 | PI (TD50/ED50) MES (mice [5]; TD50 rotarod test): 5.0 | PI (TD50/ED50) 6 Hz (44 mA) (mice [6]; TD50 rotarod test): 6.7

CCCC(CCC)C(=O)O [VPA, valproic acid, reference compound]
PI (TD50/ED50) 6 Hz (32 mA) (mice [4]; TD50 rotarod test): 3.3 | PI (TD50/ED50) MES (mice [5]; TD50 rotarod test): 1.7 | PI (TD50/ED50) 6 Hz (44 mA) (mice [6]; TD50 rotarod test): 2.3
